Reference: patent US20230210797A1, “PREVENTING AND TREATING HYPOGLYCEMIA” (DIAMYD MEDICAL AB, priority 2019, published 2023)

Assay: Hypoglycemic clamp: plasma glucose levels
Type: in vivo, human
Conditions: C-peptide undetectable, n=5
[1] = Visit 5, 200 mg GABA per day, event 2.5 mmol/L
[2] = Visit 5, 200 mg GABA per day, event 5.5 mmol/L
[3] = Visit 5, 200 mg GABA per day, event Baseline
[4] = Visit 5, 200 mg GABA per day, event Diff 2.5-5.5 mmol/L
[5] = Visit 7, 600 mg GABA per day, event 2.5 mmol/L
[6] = Visit 7, 600 mg GABA per day, event 5.5 mmol/L
[7] = Visit 7, 600 mg GABA per day, event Baseline
[8] = Visit 7, 600 mg GABA per day, event Diff 2.5-5.5 mmol/L
[9] = Visit 9, 1200 mg GABA per day, event 2.5 mmol/L
[10] = Visit 9, 1200 mg GABA per day, event 5.5 mmol/L
[11] = Visit 9, 1200 mg GABA per day, event Baseline
[12] = Visit 9, 1200 mg GABA per day, event Diff 2.5-5.5 mmol/L

NCCCC(=O)O [GABA, Gamma-amino butyric acid]
Glucose levels, change from baseline, Mean [1]: −0.16 mmol(L
Glucose levels, change from baseline, Median [1]: −0.20 mmol(L
Glucose levels, observed value, Mean [1]: 2.52 mmol(L
Glucose levels, observed value, Median [1]: 2.60 mmol(L
Glucose levels, change from baseline, Mean [2]: −0.36 mmol(L
Glucose levels, change from baseline, Median [2]: −0.10 mmol(L
Glucose levels, observed value, Mean [2]: 5.18 mmol(L
Glucose levels, observed value, Median [2]: 5.30 mmol(L
Glucose levels, change from baseline, Mean [3]: −0.28 mmol(L
Glucose levels, change from baseline, Median [3]: −0.40 mmol(L
Glucose levels, change from baseline, Mean [4]: 0.20 mmol(L
Glucose levels, change from baseline, Median [4]: 0.10 mmol(L
Glucose levels, observed value, Mean [4]: −2.66 mmol(L
Glucose levels, observed value, Median [4]: −2.90 mmol(L
Glucose levels, change from baseline, Mean [5]: 0.00 mmol(L
Glucose levels, change from baseline, Median [5]: 0.00 mmol(L
Glucose levels, observed value, Mean [5]: 2.68 mmol(L
Glucose levels, observed value, Median [5]: 2.70 mmol(L
Glucose levels, change from baseline, Mean [6]: 0.22 mmol(L
Glucose levels, change from baseline, Median [6]: 0.00 mmol(L
Glucose levels, observed value, Mean [6]: 5.76 mmol(L
Glucose levels, observed value, Median [6]: 5.80 mmol(L
Glucose levels, change from baseline, Mean [7]: 0.40 mmol(L
Glucose levels, change from baseline, Median [7]: 1.70 mmol(L
Glucose levels, change from baseline, Mean [8]: −0.22 mmol(L
Glucose levels, change from baseline, Median [8]: −0.10 mmol(L
Glucose levels, observed value, Mean [8]: −3.08 mmol(L
Glucose levels, observed value, Median [8]: −3.20 mmol(L
Glucose levels, change from baseline, Mean [9]: 0.02 mmol(L
Glucose levels, change from baseline, Median [9]: 0.00 mmol(L
Glucose levels, observed value, Mean [9]: 2.70 mmol(L
Glucose levels, observed value, Median [9]: 2.70 mmol(L
Glucose levels, change from baseline, Mean [10]: −0.24 mmol(L
Glucose levels, change from baseline, Median [10]: −0.40 mmol(L
Glucose levels, observed value, Mean [10]: 5.30 mmol(L
Glucose levels, observed value, Median [10]: 5.30 mmol(L
Glucose levels, change from baseline, Mean [11]: 0.00 mmol(L
Glucose levels, change from baseline, Median [11]: 1.30 mmol(L
Glucose levels, change from baseline, Mean [12]: 0.26 mmol(L
Glucose levels, change from baseline, Median [12]: 0.60 mmol(L
Glucose levels, observed value, Mean [12]: −2.60 mmol(L
Glucose levels, observed value, Median [12]: −2.60 mmol(L
